# Experimental data from the supplement of paper PMC8728848.
# The other results are listed elsewhere or left out.
# B1: cFel (Cyprinus carpio), P68512 (protein)
# chain: LDCTVIDGNLKQIDAGSGSVVGVNNLNETFVLIDNVFTKISGSLKHFSVGPAGQLGVNTANNIFKYQSGGFVQLAGLLKQVDAGGDQIIAGVNMYDDIYCLNMDANNKWPSSNTPWVQINGKLKYYSCGPYSCWGVNSNDQIFIMKDVSSNVCSGSGSFINIPGLLSMIEVATDGSVFGVNSQGNLYQRTGVTRSKPDGTDWISMVACPNGHKHVSFDLGVLWLVCVDGSIRKCILTD
# Tests used:
# Assay in all cases: glycan array binding signal (z-score within array); higher = stronger binding
# Conditions in all cases: glycan notation: IUPAC condensed, linker removed
# [1] = target: Neu5Ac(a2-6)Gal(b1-4)GlcNAc(b1-2)Man(a1-3)[Man(a1-6)]Man(b1-4)GlcNAc(b1-4)GlcNAc
# In short: (§1)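 Negative Z-scores can be read as non-binding. The Z-score is calculated within each array and then averaged across arrays of one protein sequence at different concentrations or buffers and across linkers. Arrays, 3228 in all, were curated from the Consortium for Functional Glycomics database and kept only where the protein sequence was available.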
# [2] = target: Neu5Ac(a2-6)Gal(b1-4)GlcNAc(b1-2)Man(a1-3)[Neu5Ac(a2-3)Gal(b1-4)GlcNAc(b1-2)Man(a1-6)]Man(b1-4)GlcNAc(b1-4)GlcNAc
# In short: as §1
# [3] = target: Neu5Ac(a2-6)Gal(b1-4)GlcNAc(b1-2)Man(a1-3)[Neu5Ac(a2-6)Gal(b1-4)GlcNAc(b1-2)Man(a1-6)]Man(b1-4)GlcNAc(b1-4)GlcNAc
# In short: as §1
# [4] = target: Neu5Ac(a2-6)Gal(b1-4)GlcNAc(b1-2)Man(a1-3)[Neu5Ac(a2-6)Gal(b1-4)GlcNAc(b1-2)Man(a1-6)]Man(b1-4)GlcNAc(b1-4)[Fuc(a1-6)]GlcNAc
# In short: as §1
# [5] = target: Neu5Ac(a2-6)Gal(b1-4)GlcNAc(b1-2)Man(a1-6)Man(b1-4)GlcNAc(b1-4)GlcNAc
# In short: as §1
# [6] = target: Neu5Ac(a2-6)Gal(b1-4)GlcNAc(b1-2)Man(a1-6)[Gal(b1-4)GlcNAc(b1-2)Man(a1-3)]Man(b1-4)GlcNAc(b1-4)GlcNAc
# In short: as §1
# [7] = target: Neu5Ac(a2-6)Gal(b1-4)GlcNAc(b1-2)Man(a1-6)[GlcNAc(b1-2)Man(a1-3)]Man(b1-4)GlcNAc(b1-4)GlcNAc
# In short: as §1
# [8] = target: Neu5Ac(a2-6)Gal(b1-4)GlcNAc(b1-2)Man(a1-6)[Man(a1-3)]Man(b1-4)GlcNAc(b1-4)GlcNAc
# In short: as §1
# [9] = target: Neu5Ac(a2-6)Gal(b1-4)GlcNAc(b1-2)[Neu5Ac(a2-6)Gal(b1-4)GlcNAc(b1-4)]Man(a1-3)[GlcNAc(b1-4)][Neu5Ac(a2-6)Gal(b1-4)GlcNAc(b1-2)[Neu5Ac(a2-6)Gal(b1-4)GlcNAc(b1-6)]Man(a1-6)]Man(b1-4)GlcNAc(b1-4)GlcNAc
# In short: as §1
# [10] = target: Neu5Ac(a2-6)Gal(b1-4)GlcNAc(b1-2)[Neu5Ac(a2-6)Gal(b1-4)GlcNAc(b1-4)]Man(a1-3)[GlcNAc(b1-4)][Neu5Ac(a2-6)Gal(b1-4)GlcNAc(b1-4)Man(a1-6)]Man(b1-4)GlcNAc(b1-4)GlcNAc
# In short: as §1
# [11] = target: Neu5Ac(a2-6)Gal(b1-4)GlcNAc(b1-2)[Neu5Ac(a2-6)Gal(b1-4)GlcNAc(b1-6)]Man(a1-6)[Neu5Ac(a2-6)Gal(b1-4)GlcNAc(b1-2)Man(a1-3)][GlcNAc(b1-4)]Man(b1-4)GlcNAc(b1-4)GlcNAc
# In short: as §1
# [12] = target: Neu5Ac(a2-6)Gal(b1-4)GlcNAc(b1-3)Gal(b1-3)GlcNAc
# In short: as §1
# [13] = target: Neu5Ac(a2-6)Gal(b1-4)GlcNAc(b1-3)Gal(b1-4)GlcNAc
# In short: as §1
# [14] = target: Neu5Ac(a2-6)Gal(b1-4)GlcNAc(b1-3)Gal(b1-4)GlcNAc(b1-2)Man(a1-3)[Neu5Ac(a2-6)Gal(b1-4)GlcNAc(b1-3)Gal(b1-4)GlcNAc(b1-2)Man(a1-6)]GalNAc
# In short: as §1
# [15] = target: Neu5Ac(a2-6)Gal(b1-4)GlcNAc(b1-3)Gal(b1-4)GlcNAc(b1-3)Gal(b1-4)GlcNAc
# In short: as §1
# [16] = target: Neu5Ac(a2-6)Gal(b1-4)GlcNAc(b1-3)Gal(b1-4)GlcNAc(b1-3)Gal(b1-4)GlcNAc(b1-2)Man(a1-3)[Neu5Ac(a2-6)Gal(b1-4)GlcNAc(b1-3)Gal(b1-4)GlcNAc(b1-3)Gal(b1-4)GlcNAc(b1-2)Man(a1-6)]GalNAc
# In short: as §1
# [17] = target: Neu5Ac(a2-6)Gal(b1-4)GlcNAc(b1-3)Gal(b1-4)GlcNAc(b1-3)GalNAc
# In short: as §1
# [18] = target: Neu5Ac(a2-6)Gal(b1-4)GlcNAc(b1-3)Gal(b1-4)GlcNAc(b1-3)[Neu5Ac(a2-6)Gal(b1-4)GlcNAc(b1-3)Gal(b1-4)GlcNAc(b1-6)]GalNAc
# In short: as §1
# [19] = target: Neu5Ac(a2-6)Gal(b1-4)GlcNAc(b1-3)Gal(b1-4)GlcNAc(b1-6)[Gal(b1-3)]GalNAc
# In short: as §1
# [20] = target: Neu5Ac(a2-6)Gal(b1-4)GlcNAc(b1-3)Gal(b1-4)[Fuc(a1-3)]GlcNAc(b1-3)Gal(b1-4)[Fuc(a1-3)]GlcNAc
# In short: as §1
# [21] = target: Neu5Ac(a2-6)Gal(b1-4)GlcNAc(b1-3)GalNAc
# In short: as §1
# [22] = target: Neu5Ac(a2-6)Gal(b1-4)GlcNAc(b1-3)[Neu5Ac(a2-6)Gal(b1-4)GlcNAc(b1-6)]GalNAc
# In short: as §1
# [23] = target: Neu5Ac(a2-6)Gal(b1-4)GlcNAc(b1-6)GalNAc
# In short: as §1
# [24] = target: Neu5Ac(a2-6)Gal(b1-4)GlcNAc(b1-6)[Gal(b1-3)GlcNAc(b1-3)]Gal(b1-4)Glc
# In short: as §1
# [25] = target: Neu5Ac(a2-6)Gal(b1-4)GlcNAc(b1-6)[Gal(b1-3)]GalNAc
# In short: as §1
# [26] = target: Neu5Ac(a2-6)Gal(b1-4)GlcNAc6S
# In short: as §1
# Neu5Ac(a2-6)GalNAc = target: Neu5Ac(a2-6)GalNAc
# In short: as §1
# [27] = target: Neu5Ac(a2-6)GalNAc(b1-4)GlcNAc
# In short: as §1
# [28] = target: Neu5Ac(a2-6)GalNAc(b1-4)GlcNAc6S
# In short: as §1
# [29] = target: Neu5Ac(a2-6)GlcNAc(b1-4)GlcNAc
# In short: as §1
# [30] = target: Neu5Ac(a2-6)GlcNAc(b1-4)GlcNAc(b1-4)GlcNAc
# In short: as §1
binder,measurement,setting,value
B1,glycan array binding signal (z-score),[1],-0.417
same,glycan array binding signal (z-score),[2],-0.624
same,glycan array binding signal (z-score),[3],1.08
same,glycan array binding signal (z-score),[4],0.618
same,glycan array binding signal (z-score),[5],0.879
same,glycan array binding signal (z-score),[6],2.07
same,glycan array binding signal (z-score),[7],-0.268
same,glycan array binding signal (z-score),[8],-0.759
same,glycan array binding signal (z-score),[9],-0.161
same,glycan array binding signal (z-score),[10],0.015
same,glycan array binding signal (z-score),[11],0.265
same,glycan array binding signal (z-score),[12],-0.253
same,glycan array binding signal (z-score),[13],1.98
same,glycan array binding signal (z-score),[14],-1.62
same,glycan array binding signal (z-score),[15],-1.19
same,glycan array binding signal (z-score),[16],0.546
same,glycan array binding signal (z-score),[17],-0.897
same,glycan array binding signal (z-score),[18],0.838
same,glycan array binding signal (z-score),[19],-0.507
same,glycan array binding signal (z-score),[20],0.134
same,glycan array binding signal (z-score),[21],-0.318
same,glycan array binding signal (z-score),[22],3.16
same,glycan array binding signal (z-score),[23],-0.757
same,glycan array binding signal (z-score),[24],-1.23
same,glycan array binding signal (z-score),[25],-0.673
same,glycan array binding signal (z-score),[26],-0.985
same,glycan array binding signal (z-score),Neu5Ac(a2-6)GalNAc,-1.14
same,glycan array binding signal (z-score),[27],-0.247
same,glycan array binding signal (z-score),[28],-0.918
same,glycan array binding signal (z-score),[29],0.562
same,glycan array binding signal (z-score),[30],0.743

# Taken from the entries so far (2 entries):
binder,measurement,setting,value
B1,glycan array binding signal (z-score),[21],-0.318
same,glycan array binding signal (z-score),[22],3.16
